Reference: the supplement of paper PMC4749390
Where a name gives a salt, the structure may show the parent alone. The list shows a part of the results. This data set is noisy: repeats of one test often differ as much as different tests do.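 JEG3 cells stably express tetracycline-inducible wild-type human LRH-1, a highly sumoylated nuclear receptor. SUMO-sensitive transcripts APOC3 and MUC1, increased by SUMO-deficient LRH-1 or UBC9 knockdown, were quantified by RT-qPCR relative to TBP and DMSO controls. Primary hits had robust Z-scores above +2 or below -2, before toxicity and TBP filtering.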

System: JEG3 expressing hLRH-1
Assay: APOC3 transcript change (ddCt vs TBP and DMSO), Z-score over library; higher = higher APOC3 expression
Conditions: 10 µM; time (hr): 24

Row | SMILES | APOC3 transcript change (Z-score)
1 | CC(C)[C@H](N)C(=O)OCCOCn1cnc2c(O)nc(N)nc21 [valacyclovir hydrochloride] | -0.0621
2 | Nc1ncn([C@@H]2O[C@H](CO)[C@@H](O)[C@H]2O)c(=O)n1 [5-azacytidine] | -2.05
3 | CCC(C)[C@H]1O[C@]2(CC[C@@H]1C)C[C@@H]1C[C@@H](C/C=C(\C)[C@@H](OC3C[C@H](OC)C(O[C@H]4C[C@H](OC)[C@@H](O)[C@H](C)O4)[C@H](C)O3)[C@@H](C)/C=C/C=C3\CO[C@@H]4[C@H](O)C(C)=C[C@@H](C(=O)O1)[C@]34O)O2 (some centres undefined) [ivermectin] | 1.32
4 | O=C(Nc1ccc([N+](=O)[O-])cc1Cl)c1cc(Cl)ccc1O [nicolsamide] | -1.37
5 | CCCc1cc(O)nc(S)n1 [propylthiouracil] | 0.828
6 | CC1(C)O[C@@H]2C[C@H]3[C@@H]4CCC5=CC(=O)C=C[C@]5(C)[C@@]4(F)[C@@H](O)C[C@]3(C)[C@]2(C(=O)CO)O1 [triamcinolone acetonide] | 0.766
7 | Cc1cc2nc3ccc(N(C)C)cc3[s+]c2cc1N [tolonium chloride] | -0.992
8 | Cc1oncc1C(=O)Nc1ccc(C(F)(F)F)cc1 [lefunamide] | 0.896
9 | Clc1ccc(CO/N=C(\Cn2ccnc2)c2ccc(Cl)cc2Cl)c(Cl)c1 [oxiconazole nitrate] | 0.429
10 | NC(=O)c1cc[n+](CC2=C(C(=O)O)N3C(=O)[C@@H](NC(=O)Cc4cccs4)[C@H]3SC2)cc1 [cefalonium] | -0.483
11 | CC(=O)OCC(=O)[C@@]1(O)CCC2C3CCC4=CC(=O)CC[C@]4(C)C3C(=O)C[C@@]21C (some centres undefined) [cortisone acetate] | 0.26
12 | Cc1nnc(NS(=O)(=O)c2ccc(N)cc2)s1 [sulfamethizole] | -0.1
13 | CO[C@@]12[C@H](COC(N)=O)C3=C(C(=O)C(C)=C(N)C3=O)N1C[C@@H]1N[C@@H]12 [mitomycin c] | -3.72
14 | Nc1ccc(S(=O)(=O)NC(=O)c2ccccc2)cc1 [sulfabenzamide] | -0.00313
15 | Cc1ccc(Cl)c(Nc2ccccc2C(=O)O)c1Cl [sodium meclofenamate] | 0.252
16 | Oc1ccc(OCc2ccccc2)cc1 [monobenzone] | 0.463
17 | C[C@H]1CC2C3CCC4=CC(=O)C=C[C@]4(C)[C@@]3(F)[C@@H](O)C[C@]2(C)[C@@]1(O)C(=O)COP(=O)(O)O (some centres undefined) [betamethasone sodium phosphate] | 1.07
18 | CNCCCC1c2ccccc2C=Cc2ccccc21 [Protriptyline hydrochloride] | 1.12
19 | CCCCCCNC(=O)n1cc(F)c(=O)[nH]c1=O [carmofur] | 0.228
20 | Nc1nc(N)c2nc(-c3ccccc3)c(N)nc2n1 [Triamterene] | -0.451
21 | O=C1C2CC3CC1CC(O)(C3)C2 [idramantone] | -0.111
22 | Cc1cccc(N(C)C(=S)Oc2ccc3ccccc3c2)c1 [tolnaftate] | 0.6
23 | CC(C)Cn1cnc2c(N)nc3ccccc3c21 [imiquimod] | -0.0883
24 | O=C(CNC(=O)c1ccc(Cl)cc1)NO [benurestat] | 0.476
25 | Nc1nc(O)ncc1F [flucytosine] | -0.0639

Another view of four compounds above:
Row	SMILES	APOC3 transcript change (Z-score)
4	O=C(Nc1ccc([N+](=O)[O-])cc1Cl)c1cc(Cl)ccc1O [nicolsamide]	-1.37
5	CCCc1cc(O)nc(S)n1 [propylthiouracil]	0.828
6	CC1(C)O[C@@H]2C[C@H]3[C@@H]4CCC5=CC(=O)C=C[C@]5(C)[C@@]4(F)[C@@H](O)C[C@]3(C)[C@]2(C(=O)CO)O1 [triamcinolone acetonide]	0.766
7	Cc1cc2nc3ccc(N(C)C)cc3[s+]c2cc1N [tolonium chloride]	-0.992

(listing goes on)

Row | SMILES | APOC3 transcript change (Z-score)
26 | COc1ccccc1N1CCN(CC(O)COc2cccc3ccccc23)CC1 (centres undefined) [Naftopidil dihydrochloride] | 1.47
27 | CC(=O)OC1CC2CCC1(C)C2(C)C (centres undefined) [bornyl acetate] | 0.212
28 | N=C(N)c1ccc(OCCCCCOc2ccc(C(=N)N)cc2)cc1 [Pentamidine isethionate] | -1.35
29 | CCC(=O)c1c(O)cc(O)cc1O [flopropione] | -1.05
30 | FC(F)(Cl)C(F)(F)Cl [cryoflurane] | -0.624
31 | CO/N=C(\C(=O)N[C@@H]1C(=O)N2C(C(=O)O)=C(COC(N)=O)CS[C@H]12)c1ccco1 [cefuroxime sodium] | 0.334
32 | NC1CCN(c2c(F)cc3c(=O)c(C(=O)O)cn(C4CC4)c3c2Cl)C1 (centres undefined) [clinafoxacin hydrochloride] | 0.671
33 | CCOC(=O)n1ccn(C)c1=S [carbimazole] | 0.301
34 | CCCCCCCCCCCCCCCC(=O)O[C@@H]1[C@@H](O)[C@@H](O)[C@@H]([C@H](NC(=O)[C@@H]2C[C@@H](CCC)CN2C)[C@H](C)Cl)O[C@@H]1SC [clindamycin palmitate hydrochloride] | -0.214
35 | CN(C)CC/C=C1/c2ccccc2COc2ccccc21 [doxepin hydrochloride] | -0.284
36 | N[C@@H](C(=O)N[C@@H]1C(=O)N2C(C(=O)O)=C(Cl)CS[C@H]12)c1ccccc1 [cefaclor] | -0.721
37 | Clc1ccc(COC(Cn2ccnc2)c2ccc(Cl)cc2Cl)c(Cl)c1 (centres undefined) [miconazole nitrate] | 1.9
38 | CC(=O)OCC(=O)[C@@]1(O)[C@H](C)CC2C3CCC4=CC(=O)C=C[C@]4(C)[C@@]3(F)[C@@H](O)C[C@@]21C (some centres undefined) [dexamethasone acetate] | 0.124
39 | Cc1c(-c2cnccn2)ssc1=S [oltipraz] | -0.278
40 | O=C1CN(/N=C/c2ccc([N+](=O)[O-])o2)C(=O)N1 [nitrofurantoin] | -0.147
41 | O=C(O)COCCN1CCN(C(c2ccccc2)c2ccc(Cl)cc2)CC1 (centres undefined) [cetirizine hydrochloride] | -1.33
42 | CCC(=O)O[C@]1(C(=O)CCl)[C@@H](C)C[C@H]2[C@@H]3CCC4=CC(=O)C=C[C@]4(C)[C@@]3(F)[C@@H](O)C[C@@]21C [clobetasol propionate] | 0.0504
43 | CC(C)NCC(O)c1ccc2ccccc2c1 (centres undefined) [pronetalol hydrochloride] | -1.67
44 | Cc1nc2n(c(=O)c1CCN1CCC(c3noc4cc(F)ccc34)CC1)CCC[C@H]2O [paliperidone] | -0.208
45 | CC(NCCc1ccc(O)cc1)C(O)c1ccc(O)cc1 (centres undefined) [ritodrine hydrochloride] | -0.223
46 | CN1CCC(=C2c3ccccc3CC(=O)c3sccc32)CC1 [ketotifen fumarate] | 1.32
47 | CCOC(=O)C1=C[C@]2(CC)CCCN3CCc4c(n1c1ccccc41)[C@@H]32 [vinpocetine] | 0.522
48 | Cc1ccc(O)cc1 [cresol] | 1.02
49 | C/C(=C\C(=O)OCCCCCCCCC(=O)O)C[C@@H]1OC[C@H](C[C@@H]2O[C@H]2[C@@H](C)[C@H](C)O)[C@@H](O)[C@H]1O [mupirocin] | -0.123
